Source: patent US20260216243A1
Results are given in words; binding and its absence hold for the method and conditions named. Some entries that bind do so weakly or less than the wild type. Tags and fused reporters may be left off the sequences shown.

Molecular target: T1, recombinant human interleukin 2 receptor gamma IL2Rγ (hIL2Rγ) fused to a His-tag (human) (UniProt P31785)
T1 sequence: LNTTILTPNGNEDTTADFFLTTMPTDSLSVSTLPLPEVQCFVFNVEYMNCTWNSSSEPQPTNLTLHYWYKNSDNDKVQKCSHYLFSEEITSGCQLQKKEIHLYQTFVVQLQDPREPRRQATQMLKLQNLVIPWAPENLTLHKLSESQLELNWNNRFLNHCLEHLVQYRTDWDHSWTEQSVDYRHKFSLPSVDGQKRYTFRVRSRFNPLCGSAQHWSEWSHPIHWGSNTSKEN
Assay: selected from the clones positive in ELISA of periplasmic extracts on coated human IL2Rγ-His

- binding: binds
B1: 2RGT38 (VHH)
VHH: QVQLQESGGGLVQAGGSLRLSCAASGGPSGISTVAWFRQAPGKEREFVAAINWSGESTNYEDSVLGRFTISRDNAKNTVFLQMNSLTPEDTAVYVCTTTRDAGTRLGSRWYGPRTSAYENWGQGTQVTVSS
